Results reported in PubChem BioAssay (NCATS).
Values joined by “and” are separate entries in the source; they are usually repeats but may differ in a detail not shown here. Equal values may be shown once. The shares of active, inactive and inconclusive entries below differ from those in the screen. Active and inactive are the calls of the source. Calls come from the whole dose curve; as a rule, active = well fitted curve in either direction with a large enough effect (not every such curve was filed as active); inconclusive = small, poorly fitted or top-dose-only effect, or another doubt; inactive = flat fitted curve, though single readings scatter.

assay: Stat Signaling Pathway (AID 446); conditions: ME-180 SIE beta-lactamase reporter, IL-6 stimulated, 5 h; at 17.2 µM (top of the series);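 note: ME-180 cervical cancer cells given 40 pM IL-6 alongside compound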
Protocol: NCGC Assay Overview: The IL-6/STAT signaling pathway was assayed in ME-180 cervical carcinoma cells by a beta-lactamase reporter gene controlled by a STAT Inducible Element (SIE). This reporter is induced by IL-6 at 40 pM AC50 and inhibited by the pan JAK inhibitor, 2-(1,1-Dimethylethyl)-9-fluoro-3,6-dihydro-7H-benz[h]-imidaz[4,5-f]isoquinolin-7-one, at approximately 10 nM AC50. Plated cells were incubated overnight and on the following day, stimulated with 40 pM IL-6 for 5 hrs. The assay was screened at the AC50 of IL-6 activation to identify both inhibitors and activators of IL-6/STAT signaling.
NCGC Assay Protocol Summary: Cells were trypsinized, washed in assay medium (AM, OPTI MEM with 0.5% fetal bovine serum, 0.1 mM nonessential amino acids, 1 mM sodium pyruvate, 10mM HEPES pH 7.3, 100U/ml penicillin, and 100 ug/ml streptomycin) and suspended at 6 x 10e5/ml in AM. Approximately […] cells in 5 uL/well was dispensed into 1536 well plates and the cells were incubated overnight at 37 C. 23 nL of compound were delivered by a pin tool and 1 uL of IL-6 (40 pM final concentration in AM) was added. After centrifugation at 1000 rpm for less than a minute, plates were incubated at 37C for 5 hrs. One uL of detector mix (LiveBLAzerTM, Invitrogen) was added, the plates incubated at room temperature for 2.5 hrs, and fluorescence intensity at 460 and 530 nm emission was measured at 405 nm excitation by an Envision (Perkin Elmer) or Safire II (Tecan). Data were normalized by GeneData to the controls for AC90 stimulation (300 pM IL-6) and to AC90 inhibition (125 nM Jak inhibitor, 40 pM IL-6 in AM).
% is set by controls: 0 for no effect and ±100 for the full control effect.

Structure (SMILES) | activity, negative = inhibition
Nc1nc2c(ncn2COCCO)c(=O)[nH]1 | inactive: -4.78% and inactive: -0.341%
NCCCCCC(=O)O | inactive: -9.7%
O=c1cc(-c2ccc(O)c(O)c2)oc2cc(O)cc(O)c12 | inconclusive: -99.6% [inhibitor]
Clc1ccccc1C(c1ccccc1)(c1ccccc1)n1ccnc1 | inconclusive: -50.9% [inhibitor]

same assay, conditions: ME-180 (cervical carcinoma) SIE beta-lactamase reporter, IL-6 stimulated, 5 h; at 38 µM (top of the series)

Structure (SMILES) | activity, negative = inhibition
Nc1nc2c(ncn2COCCO)c(=O)[nH]1 | inactive: 5.73%
O=C(CCc1ccc(O)cc1)c1c(O)cc(O)cc1O | inconclusive: -35.1% [inhibitor]
Oc1ccc(-c2nc(-c3ccc(F)cc3)c(-c3ccncc3)[nH]2)cc1 | inactive: -13.4%
NCCCCCC(=O)O | inactive: 0.0693%
NC12CC3CC(CC(C3)C1)C2 | inconclusive: 7.41% [activator]
Cc1cnc(C(=O)NCCc2ccc(S(=O)(=O)NC(=O)NC3CCCCC3)cc2)cn1 | inconclusive: -44.5% [inhibitor]
O=C1c2ccccc2-c2n[nH]c3cccc1c23 | inconclusive: 20.2% [activator]
Nc1nc(OCc2ccccc2)c2[nH]cnc2n1 | inactive: -0.525%
